Measured values as given in the supplement of paper PMC10849652.
Some of the results follow.

By UniProt entry, the sequences of proteins in these tests, tags left out. Where a name states a change or a piece, a line headed by the entry shows the natural chain unless it says otherwise.
UniProt Q96GF1: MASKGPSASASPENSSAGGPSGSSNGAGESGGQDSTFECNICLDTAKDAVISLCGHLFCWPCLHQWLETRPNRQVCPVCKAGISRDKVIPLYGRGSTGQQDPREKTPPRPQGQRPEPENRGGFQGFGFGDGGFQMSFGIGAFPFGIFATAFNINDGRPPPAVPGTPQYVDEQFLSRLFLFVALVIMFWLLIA
UniProt Q99496: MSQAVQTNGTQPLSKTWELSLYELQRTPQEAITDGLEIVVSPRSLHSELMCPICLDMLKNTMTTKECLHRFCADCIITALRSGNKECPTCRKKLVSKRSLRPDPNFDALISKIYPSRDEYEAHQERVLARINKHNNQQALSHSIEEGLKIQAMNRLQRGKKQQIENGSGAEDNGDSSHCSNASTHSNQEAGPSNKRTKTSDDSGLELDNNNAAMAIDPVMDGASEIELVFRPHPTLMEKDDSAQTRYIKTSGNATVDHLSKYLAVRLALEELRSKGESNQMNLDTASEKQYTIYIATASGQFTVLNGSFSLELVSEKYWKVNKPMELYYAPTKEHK
UniProt P78317: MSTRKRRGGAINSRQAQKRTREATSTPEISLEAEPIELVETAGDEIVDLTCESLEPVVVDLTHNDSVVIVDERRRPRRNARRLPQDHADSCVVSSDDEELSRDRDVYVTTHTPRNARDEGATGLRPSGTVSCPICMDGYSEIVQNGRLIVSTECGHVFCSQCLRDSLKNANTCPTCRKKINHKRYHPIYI
UniProt Q9GZN7, whole entry, looked up: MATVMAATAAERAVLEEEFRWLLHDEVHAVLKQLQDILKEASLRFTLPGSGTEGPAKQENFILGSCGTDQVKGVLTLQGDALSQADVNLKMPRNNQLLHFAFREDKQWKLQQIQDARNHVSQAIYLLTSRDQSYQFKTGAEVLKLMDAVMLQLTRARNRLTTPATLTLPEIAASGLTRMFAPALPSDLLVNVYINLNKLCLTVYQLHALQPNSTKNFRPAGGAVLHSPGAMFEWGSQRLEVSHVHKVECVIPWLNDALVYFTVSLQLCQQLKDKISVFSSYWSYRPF
UniProt Q6ZS11: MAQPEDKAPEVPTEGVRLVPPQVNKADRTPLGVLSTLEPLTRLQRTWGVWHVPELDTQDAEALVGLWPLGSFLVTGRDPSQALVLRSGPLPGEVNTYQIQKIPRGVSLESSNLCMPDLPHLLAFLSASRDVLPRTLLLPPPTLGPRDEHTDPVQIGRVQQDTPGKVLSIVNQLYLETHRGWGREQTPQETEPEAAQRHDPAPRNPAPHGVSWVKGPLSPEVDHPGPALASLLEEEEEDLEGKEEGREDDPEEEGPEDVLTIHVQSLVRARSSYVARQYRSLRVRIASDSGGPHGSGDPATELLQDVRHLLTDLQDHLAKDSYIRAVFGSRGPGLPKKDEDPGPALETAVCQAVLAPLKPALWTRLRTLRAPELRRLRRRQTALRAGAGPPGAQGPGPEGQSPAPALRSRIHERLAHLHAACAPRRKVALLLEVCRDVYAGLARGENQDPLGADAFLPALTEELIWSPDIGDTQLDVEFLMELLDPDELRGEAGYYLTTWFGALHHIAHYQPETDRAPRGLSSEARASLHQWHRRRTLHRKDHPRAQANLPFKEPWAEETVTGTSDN
UniProt Q9H4P4: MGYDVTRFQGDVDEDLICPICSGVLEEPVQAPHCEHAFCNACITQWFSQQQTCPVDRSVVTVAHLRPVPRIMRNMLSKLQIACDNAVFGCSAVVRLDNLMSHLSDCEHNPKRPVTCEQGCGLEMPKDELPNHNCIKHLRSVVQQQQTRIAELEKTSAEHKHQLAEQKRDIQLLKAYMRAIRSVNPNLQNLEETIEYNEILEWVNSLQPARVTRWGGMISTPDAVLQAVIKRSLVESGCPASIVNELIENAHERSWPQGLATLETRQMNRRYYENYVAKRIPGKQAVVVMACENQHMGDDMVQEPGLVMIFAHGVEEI
UniProt Q96G75, whole entry, looked up: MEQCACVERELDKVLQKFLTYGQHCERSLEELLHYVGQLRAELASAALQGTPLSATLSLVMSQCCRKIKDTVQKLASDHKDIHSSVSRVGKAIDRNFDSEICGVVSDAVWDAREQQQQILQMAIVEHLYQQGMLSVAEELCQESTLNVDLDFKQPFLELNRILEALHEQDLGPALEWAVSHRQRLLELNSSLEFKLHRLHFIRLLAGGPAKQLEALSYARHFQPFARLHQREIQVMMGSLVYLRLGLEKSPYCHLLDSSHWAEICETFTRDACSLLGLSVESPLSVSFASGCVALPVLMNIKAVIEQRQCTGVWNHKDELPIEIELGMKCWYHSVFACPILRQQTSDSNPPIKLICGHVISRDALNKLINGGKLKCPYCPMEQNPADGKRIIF
UniProt Q6ZNA4: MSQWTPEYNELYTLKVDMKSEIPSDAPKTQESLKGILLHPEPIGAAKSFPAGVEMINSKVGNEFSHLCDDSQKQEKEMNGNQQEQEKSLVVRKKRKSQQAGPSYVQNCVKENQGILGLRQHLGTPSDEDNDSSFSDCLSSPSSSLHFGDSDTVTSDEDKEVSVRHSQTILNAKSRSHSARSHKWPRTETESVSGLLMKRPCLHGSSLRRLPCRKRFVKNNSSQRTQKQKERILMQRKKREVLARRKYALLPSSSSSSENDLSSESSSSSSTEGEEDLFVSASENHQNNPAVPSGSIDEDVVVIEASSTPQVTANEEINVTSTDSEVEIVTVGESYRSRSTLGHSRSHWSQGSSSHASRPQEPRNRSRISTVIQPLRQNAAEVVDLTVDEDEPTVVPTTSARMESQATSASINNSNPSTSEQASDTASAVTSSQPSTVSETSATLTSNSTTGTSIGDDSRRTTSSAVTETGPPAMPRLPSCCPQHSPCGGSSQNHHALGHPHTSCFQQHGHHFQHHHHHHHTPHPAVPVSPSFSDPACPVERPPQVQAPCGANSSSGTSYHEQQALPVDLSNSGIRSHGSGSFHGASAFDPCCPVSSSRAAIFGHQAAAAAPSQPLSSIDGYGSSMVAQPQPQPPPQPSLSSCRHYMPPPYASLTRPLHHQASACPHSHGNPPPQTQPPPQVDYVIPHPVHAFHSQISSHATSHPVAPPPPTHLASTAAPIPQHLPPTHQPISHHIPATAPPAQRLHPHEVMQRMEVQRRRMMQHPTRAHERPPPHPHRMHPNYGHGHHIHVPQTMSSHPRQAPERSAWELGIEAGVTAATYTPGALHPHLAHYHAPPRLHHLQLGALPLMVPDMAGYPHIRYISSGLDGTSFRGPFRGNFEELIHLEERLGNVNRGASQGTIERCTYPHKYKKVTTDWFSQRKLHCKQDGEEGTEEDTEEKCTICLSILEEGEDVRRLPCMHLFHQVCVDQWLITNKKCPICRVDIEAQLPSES
UniProt Q86XS8: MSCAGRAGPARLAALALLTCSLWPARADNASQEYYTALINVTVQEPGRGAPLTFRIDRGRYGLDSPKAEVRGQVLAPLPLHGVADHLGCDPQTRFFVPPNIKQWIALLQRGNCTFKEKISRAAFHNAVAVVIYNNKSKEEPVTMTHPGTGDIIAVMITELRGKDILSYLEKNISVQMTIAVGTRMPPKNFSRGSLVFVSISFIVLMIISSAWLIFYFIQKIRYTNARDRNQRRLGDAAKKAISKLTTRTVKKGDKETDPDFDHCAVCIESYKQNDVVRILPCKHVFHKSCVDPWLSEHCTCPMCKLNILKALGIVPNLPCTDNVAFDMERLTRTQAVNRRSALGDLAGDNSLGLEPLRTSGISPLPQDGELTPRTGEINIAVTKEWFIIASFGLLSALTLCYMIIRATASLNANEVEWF
UniProt Q8WU17: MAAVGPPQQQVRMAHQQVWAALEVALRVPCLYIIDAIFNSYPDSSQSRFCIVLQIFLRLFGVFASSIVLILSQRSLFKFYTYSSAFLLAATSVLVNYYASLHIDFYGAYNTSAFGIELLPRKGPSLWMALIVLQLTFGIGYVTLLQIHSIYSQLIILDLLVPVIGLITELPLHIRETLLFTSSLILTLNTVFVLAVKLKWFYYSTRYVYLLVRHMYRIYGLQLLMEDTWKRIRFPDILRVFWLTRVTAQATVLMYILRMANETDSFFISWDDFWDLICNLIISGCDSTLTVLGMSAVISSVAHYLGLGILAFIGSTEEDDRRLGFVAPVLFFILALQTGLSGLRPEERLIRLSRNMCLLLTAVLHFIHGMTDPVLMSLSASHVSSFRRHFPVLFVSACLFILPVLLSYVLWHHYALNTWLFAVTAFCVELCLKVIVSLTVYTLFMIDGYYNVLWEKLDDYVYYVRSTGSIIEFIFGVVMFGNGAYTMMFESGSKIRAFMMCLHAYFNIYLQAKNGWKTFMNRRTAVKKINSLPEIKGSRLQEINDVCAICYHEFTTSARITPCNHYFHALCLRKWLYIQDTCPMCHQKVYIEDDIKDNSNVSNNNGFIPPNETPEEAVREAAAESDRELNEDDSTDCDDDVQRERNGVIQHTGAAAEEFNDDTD
UniProt O43567: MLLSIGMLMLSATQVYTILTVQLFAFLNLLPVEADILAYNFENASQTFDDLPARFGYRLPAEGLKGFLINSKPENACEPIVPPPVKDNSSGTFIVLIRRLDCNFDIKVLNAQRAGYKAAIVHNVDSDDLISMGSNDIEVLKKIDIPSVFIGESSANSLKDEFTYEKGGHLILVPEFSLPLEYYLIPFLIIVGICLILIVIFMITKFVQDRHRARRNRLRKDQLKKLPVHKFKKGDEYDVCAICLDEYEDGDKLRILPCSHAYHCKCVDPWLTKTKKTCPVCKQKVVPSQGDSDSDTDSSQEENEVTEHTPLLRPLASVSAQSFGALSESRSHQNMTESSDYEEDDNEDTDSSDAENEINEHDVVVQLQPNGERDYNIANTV
UniProt Q9Y4L5, whole entry, looked up: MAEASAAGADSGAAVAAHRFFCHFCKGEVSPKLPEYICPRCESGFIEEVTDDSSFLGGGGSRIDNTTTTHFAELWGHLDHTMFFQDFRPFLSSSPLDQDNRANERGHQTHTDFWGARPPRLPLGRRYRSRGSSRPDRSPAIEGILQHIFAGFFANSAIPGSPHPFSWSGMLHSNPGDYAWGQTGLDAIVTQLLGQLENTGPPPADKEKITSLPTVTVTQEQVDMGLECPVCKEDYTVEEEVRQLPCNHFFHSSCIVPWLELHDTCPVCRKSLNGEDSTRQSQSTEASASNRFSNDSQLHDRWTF
UniProt Q8NCN4: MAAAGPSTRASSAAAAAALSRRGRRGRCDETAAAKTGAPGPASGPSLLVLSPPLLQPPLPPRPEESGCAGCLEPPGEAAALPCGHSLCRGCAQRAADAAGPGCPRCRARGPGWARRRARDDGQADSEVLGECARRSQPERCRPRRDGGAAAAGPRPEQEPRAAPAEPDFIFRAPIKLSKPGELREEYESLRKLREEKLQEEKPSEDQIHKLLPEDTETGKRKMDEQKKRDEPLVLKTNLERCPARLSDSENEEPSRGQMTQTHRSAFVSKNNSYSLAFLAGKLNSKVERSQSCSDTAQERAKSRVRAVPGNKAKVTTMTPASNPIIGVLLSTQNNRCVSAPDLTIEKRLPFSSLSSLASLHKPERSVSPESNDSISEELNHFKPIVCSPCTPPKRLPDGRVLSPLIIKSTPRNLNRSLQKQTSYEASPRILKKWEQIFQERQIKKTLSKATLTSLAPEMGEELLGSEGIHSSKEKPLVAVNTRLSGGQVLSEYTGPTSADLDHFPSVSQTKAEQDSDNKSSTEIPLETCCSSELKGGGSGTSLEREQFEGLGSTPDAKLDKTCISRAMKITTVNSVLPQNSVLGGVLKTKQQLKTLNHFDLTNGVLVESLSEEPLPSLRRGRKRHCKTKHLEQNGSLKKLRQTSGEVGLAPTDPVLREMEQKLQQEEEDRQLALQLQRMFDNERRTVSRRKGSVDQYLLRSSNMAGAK
UniProt Q9H920: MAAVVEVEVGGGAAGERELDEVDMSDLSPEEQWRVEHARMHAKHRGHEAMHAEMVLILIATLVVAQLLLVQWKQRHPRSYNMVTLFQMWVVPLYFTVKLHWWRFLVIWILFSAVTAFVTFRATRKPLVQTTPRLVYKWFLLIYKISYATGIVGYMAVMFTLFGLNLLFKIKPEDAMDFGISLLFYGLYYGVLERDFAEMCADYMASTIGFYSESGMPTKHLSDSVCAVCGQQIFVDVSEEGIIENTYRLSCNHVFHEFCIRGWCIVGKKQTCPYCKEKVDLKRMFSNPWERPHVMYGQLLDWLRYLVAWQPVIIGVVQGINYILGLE
UniProt Q86UA6: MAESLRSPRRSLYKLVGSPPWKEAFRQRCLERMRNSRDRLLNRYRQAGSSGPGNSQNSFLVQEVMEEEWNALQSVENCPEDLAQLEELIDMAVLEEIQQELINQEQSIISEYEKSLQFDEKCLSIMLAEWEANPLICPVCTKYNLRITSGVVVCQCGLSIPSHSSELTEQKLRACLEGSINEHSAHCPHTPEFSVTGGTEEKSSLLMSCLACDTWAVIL
UniProt Q969X0: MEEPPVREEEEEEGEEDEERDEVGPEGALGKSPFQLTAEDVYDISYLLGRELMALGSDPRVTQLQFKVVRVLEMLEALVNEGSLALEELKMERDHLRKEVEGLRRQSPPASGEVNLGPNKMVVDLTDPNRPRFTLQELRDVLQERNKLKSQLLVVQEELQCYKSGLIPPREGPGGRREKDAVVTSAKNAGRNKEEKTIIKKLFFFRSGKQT

Key:
Assay in all cases: log2 fold change, soluble protein after heating vs DMSO (PISA); higher = thermal stabilisation; K562 lysate, 10 uM; active = over 0.2 and 3.5 SD of the protein, either way, in both replicates (recomputed)
[1] = compound: CCCS(=O)(=O)Nc1ccc(F)c(C(=O)c2c[nH]c3ncc(Cl)cc23)c1F
Method in brief: (§1)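 Following dounce homogenisation of K562 pellets in PBS pH 7.4 with 1 mM MgCl2, crude extract at 1 mg/mL protein was incubated for 30 min with 10 μM compound. Aliquots were then heated for 3 min over 48°C-58°C and pooled, NP-40 was added to 0.5% at 4°C, and soluble protein was recovered as the supernatant at 21,000xg for 90 min. Channel-sum-equalised TMTpro 16plex LC-MS/MS quantified this protein. Each value, from duplicates, is a log-two fold change in thermal stability relative to solvent controls.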

barasertib = compound: CCN(CCCOc1ccc2c(Nc3cc(CC(=O)Nc4cccc(F)c4)[nH]n3)ncnc2c1)CCOP(=O)(O)O [barasertib]
Method in brief: as §1

volasertib = compound: CC[C@@H]1C(=O)N(C)c2cnc(Nc3ccc(C(=O)N[C@H]4CC[C@H](N5CCN(CC6CC6)CC5)CC4)cc3OC)nc2N1C(C)C [volasertib]
Method in brief: as §1

[2] = compound: CCn1cc(-c2ccnc3[nH]c(-c4cccc(CN(C)C)c4)cc23)c(-c2ccc(NC(=O)N(C)C)cc2)n1
Method in brief: as §1

[3] = compound: CN1CCC(CNc2ccc3ncc(-c4cccc(OC(F)(F)F)c4)n3n2)CC1
Method in brief: as §1

alvocidib = compound: CN1CC[C@H](c2c(O)cc(O)c3c(=O)cc(-c4ccccc4Cl)oc23)[C@H](O)C1 [alvocidib]
Method in brief: as §1

[4] = compound: CNC(=O)C1=CC=CC=C1NC2=NC(=NC=C2Cl)NC3=C(C=C(C=C3)N4CCOCC4)OC
Method in brief: as §1

alisertib = compound: COc1cc(Nc2ncc3c(n2)-c2ccc(Cl)cc2C(c2c(F)cccc2OC)=NC3)ccc1C(=O)O [alisertib]
Method in brief: as §1

[5] = compound: COc1cc2nc(-c3cc(F)ccc3O)nc(N[C@@H]3CNC[C@H]3C(C)(C)O)c2cc1OC
Method in brief: as §1

gefitinib = compound: COc1cc2ncnc(Nc3ccc(F)c(Cl)c3)c2cc1OCCCN1CCOCC1 [gefitinib]
Method in brief: as §1

vemurafenib = compound: CCCS(=O)(=O)Nc1ccc(F)c(C(=O)c2c[nH]c3ncc(-c4ccc(Cl)cc4)cc23)c1F [vemurafenib]
Method in brief: as §1

[6] = compound: CC[C@@H]1C(=O)N(C)c2cnc(Nc3ccc(C(=O)NC4CCN(C)CC4)cc3OC)nc2N1C1CCCC1
Method in brief: as §1

[7] = compound: CCn1c(C(=O)N(C2CC2)C2CC2)cc2c3c(ncn3C)c(Nc3cc(C)n(C)n3)nc21
Method in brief: as §1

saracatinib = compound: CN1CCN(CCOc2cc(OC3CCOCC3)c3c(Nc4c(Cl)ccc5c4OCO5)ncnc3c2)CC1 [saracatinib]
Method in brief: as §1

sotrastaurin = compound: CN1CCN(c2nc(C3=C(c4c[nH]c5ccccc45)C(=O)NC3=O)c3ccccc3n2)CC1 [sotrastaurin]
Method in brief: as §1

Tubastatin A = compound: CN1CCc2c(c3ccccc3n2Cc2ccc(C(=O)NO)cc2)C1 [Tubastatin A]
Method in brief: as §1

defactinib = compound: CNC(=O)c1ccc(Nc2ncc(C(F)(F)F)c(NCc3nccnc3N(C)S(C)(=O)=O)n2)cc1 [defactinib]
Method in brief: as §1

[8] = compound: CNc1nc(-c2ccc3c(N)n[nH]c3c2)cc(N2C[C@@H](C(=O)NC3CCCCC3)CC[C@H]2C)n1
Method in brief: as §1

encorafenib = compound: COC(=O)N[C@@H](C)CNc1nccc(-c2cn(C(C)C)nc2-c2cc(Cl)cc(NS(C)(=O)=O)c2F)n1 [encorafenib]
Method in brief: as §1

[9] = compound: COC(=O)[C@H](CCSC)NC(=O)C1=C(C=C(C=C1)NC[C@H](CS)N)C2=CC=CC=C2
Method in brief: as §1

Measured: log2 fold change

RNF185 (UniProt Q96GF1)
inactive: [1] -0.045 | barasertib 0.036 | volasertib 0.037 | [2] -0.021 | [3] -0.009 | alvocidib -0.012 | [4] 0.092 | alisertib 0.032 | [5] 0.016 | gefitinib -0.003

RNF2 (UniProt Q99496)
active: [2] 0.557 | [3] -0.399
inactive: vemurafenib -0.03 | [6] -0.03 | [7] 0.061 | saracatinib -0.004 | sotrastaurin -0.002 | alvocidib 0.359 | Tubastatin A -0.008 | [4] 0.067 | defactinib 0.034 | [8] 0.018 | encorafenib 0.054 | [9] -0.076 | alisertib -0.125 | gefitinib -0.038

RNF4 (UniProt P78317)
inactive: vemurafenib 0.012 | barasertib -0.196 | [6] -0.1 | [7] 0.211 | [2] 0.083 | [3] 0.008 | sotrastaurin -0.184 | alvocidib 0.053 | Tubastatin A -0.229 | defactinib -0.13 | encorafenib 0.099 | [9] -0.019 | alisertib 0.151 | gefitinib -0.194

ROGDI (UniProt Q9GZN7)
inactive: [1] -0.032 | barasertib 0.17 | volasertib 0.017 | [7] 0 | [2] -0.076 | [3] 0.05 | saracatinib 0.03 | sotrastaurin -0.1 | alvocidib 0.095 | Tubastatin A -0.133 | [4] -0.145 | [8] 0.333 | alisertib -0.019 | [5] -0.059 | gefitinib 0.1

RINL (UniProt Q6ZS11)
inactive: [1] -0.014 | barasertib -0.114 | [6] -0.239 | volasertib 0.003 | [7] 0.045 | [2] -0.038 | [3] -0.104 | saracatinib 0.076 | alvocidib 0.126 | Tubastatin A -0.142 | [4] 0.117 | [8] 0.07 | encorafenib 0.283 | [9] 0.212 | alisertib 0.066 | [5] 0.04 | gefitinib -0.022

RNF10 isoform 2 (UniProt Q8N5U6)
inactive: [1] 0.097 | [6] 0.336 | volasertib 0.156 | saracatinib 0.04 | sotrastaurin 0.018 | [4] 0.157 | [8] 0.063 | encorafenib -0.098 | [9] 0.121 | [5] -0.054

RNF41 (UniProt Q9H4P4)
inactive: [7] 0.109 | [2] 0.156 | [3] -0.171 | saracatinib -0.076 | sotrastaurin 0.045 | alvocidib 0.12 | Tubastatin A -0.017 | [4] -0.01 | [8] -0.141 | alisertib -0.073 | gefitinib -0.166

RMND5B (UniProt Q96G75)
inactive: vemurafenib 0.129 | [2] 0.004 | [3] 0.053 | alvocidib -0.021 | defactinib 0.005

RNF111 isoform 3 (UniProt Q6ZNA4)
inactive: sotrastaurin -0.009

Two entries picked at random from the list so far:
RNF41 (UniProt Q9H4P4)
inactive: [7] 0.109 | [2] 0.156 | [3] -0.171 | saracatinib -0.076 | sotrastaurin 0.045 | alvocidib 0.12 | Tubastatin A -0.017 | [4] -0.01 | [8] -0.141 | alisertib -0.073 | gefitinib -0.166

RNF111 isoform 3 (UniProt Q6ZNA4)
inactive: sotrastaurin -0.009

(continued)

RNF130 (UniProt Q86XS8)
inactive: vemurafenib -0.102 | barasertib 0.112 | [2] -0.221 | [3] -0.107 | saracatinib -0.033 | sotrastaurin -0.032 | alvocidib -0.013 | defactinib 0.159 | [8] 0.157

RNF139 (UniProt Q8WU17)
inactive: vemurafenib 0.138 | [2] -0.242 | [3] 0.021 | sotrastaurin 0.028 | alvocidib -0.053 | [4] -0.016 | defactinib 0.117

RPL15, A0A2R8Y738
inactive: [1] -0.062 | barasertib -0.222 | volasertib -0.12 | [4] -0.03 | alisertib 0.225 | [5] 0.023 | gefitinib 0.288

RNF13 (UniProt O43567)
inactive: [4] -0.05

RPL22L1 (UniProt Q6P5R6)
inactive: barasertib -0.056 | [6] 0.477 | [7] 0.139 | saracatinib -1.36 | Tubastatin A 0.492 | [8] 0.845 | encorafenib 0.611 | [9] -0.024

RNF115 (UniProt Q9Y4L5)
inactive: vemurafenib -0.09 | [2] 0.069 | [3] 0.149 | sotrastaurin -0.015 | alvocidib 0.165 | defactinib -0.025 | alisertib -0.104 | gefitinib -0.628

RNF169 (UniProt Q8NCN4)
inactive: barasertib -0.014 | [7] 0.143 | saracatinib 0.19 | sotrastaurin -0.079 | Tubastatin A -0.058 | [4] 0.047 | [8] 0.17

RNF121 (UniProt Q9H920)
inactive: [1] -0.2 | barasertib -0.028 | volasertib -0.067 | [7] 0.072 | [2] -0.155 | [3] 0.033 | saracatinib 0.004 | sotrastaurin -0.019 | alvocidib -0.04 | Tubastatin A -0.026 | [4] 0.028 | [8] -0.118 | alisertib 0.089 | [5] -0.022 | gefitinib 0.05

RPAIN isoform 8 (UniProt Q86UA6)
inactive: vemurafenib -0.114 | barasertib 0.042 | [6] -0.029 | [2] 0.405 | [3] 0.053 | alvocidib 0.174 | defactinib -0.014 | encorafenib 0.051 | [9] -0.19

RILPL2 (UniProt Q969X0)
inactive: [1] 0.027 | barasertib -0.069 | volasertib 0.083 | [7] -0.02 | [2] -0.043 | [3] 0.058 | sotrastaurin -0.061 | alvocidib -0.027 | Tubastatin A -0.014 | [4] 0.023 | alisertib -0.05 | [5] 0.054 | gefitinib -0.049
